Data taken from patent EP4834881A1, “QUINOLONE COMPOUNDS AND USE THEREOF” (dated 2026).
pIC50: −log10 of the molar value. The structures given here were assigned with low confidence; some may be wrong.

Sequences of proteins named here, by UniProt entry; tags and fusion partners are left off.
UniProt Q96LB1, whole entry: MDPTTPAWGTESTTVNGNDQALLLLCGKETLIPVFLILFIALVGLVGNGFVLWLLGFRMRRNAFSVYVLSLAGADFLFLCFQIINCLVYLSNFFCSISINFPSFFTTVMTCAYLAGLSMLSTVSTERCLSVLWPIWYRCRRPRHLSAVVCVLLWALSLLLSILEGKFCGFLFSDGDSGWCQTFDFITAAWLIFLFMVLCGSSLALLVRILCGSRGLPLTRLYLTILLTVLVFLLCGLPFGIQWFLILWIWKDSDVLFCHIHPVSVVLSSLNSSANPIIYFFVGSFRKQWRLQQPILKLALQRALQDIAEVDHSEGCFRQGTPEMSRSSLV

Key:
human MRGPRX2 = human MRGPRX2 (Homo sapiens, UniProt Q96LB1); test: In vitro target binding assay: BRET between MRGPRX2-Nluc and Venus-β-arrestin1 in transfected HEK-293T cells, antagonist mode against agonist R-ZINC-3573 (EC80); conditions: antagonism of agonist R-ZINC-3573 at EC80, net BRET
From the text: Bioluminescence Resonance Energy Transfer (BRET) is an important biophysical technique for monitoring molecular interactions, and has been widely used to study protein-protein interactions in living cells. This technique requires the relevant proteins to be linked to an energy donor (such as luciferase) and an acceptor (such as a fluorescent protein). When a relevant drug molecule interacts with the protein, the protein structure alters, causing a change in the distance between the energy donor and the energy acceptor. The luminescence energy induced by the chemical reaction is transferred to the corresponding acceptor, resulting in increased acceptor emission, and generating a BRET signal. In this work, a DNA-synthesized target human MRGPRX2 and a donor luciferase Nluc (NanoLuc®Promega) (Supplier: Beijing Tsingke, Lot No.: SZ0171228-1), as well as an acceptor fluorescent protein Venus and the relevant test protein, namely human β-arrestin1 (ARRB1) (Supplier: Guangzhou Dahong Biotechnology, Lot No. HY22694-4396), were utilized, and were inserted into the eukaryotic expression vector plasmid pcDNA3.1(+) (Supplier: Qiyun Bio, Lot No.: QY2310) as fusion genes via a Linker sequence (GGSG). The cell line selected for the experiment was human embryonic kidney cells HEK-293T. The human embryonic kidney cell line HEK-293T was routinely cultured in 10 cm cell culture dishes using complete culture medium consisting of high-glucose DMEM medium supplemented with 10% (V/V) fetal bovine serum. Cells were seeded at 2×10^6 cells/10 cm dish on the first day of culture, and passaged every 72 h with the same number of cells. One day prior to transfection, cells were resuspended, counted, and seeded at a density of 2×10^6 cells/6 cm dish or 4×10^6 cells/10 cm dish. Transfection was carried out 16-24 h after seeding. Plasmids constructed with the fusion protein gene were transfected into the expression cell line, and the transfected cells were cultured under appropriate conditions for a period of time to allow sufficient expression of the fusion proteins. Transfection was performed by encapsulating plasmid DNA with PEI reagent, and the encapsulation process should to be carried out in Opti-MEM medium. The ratio of plasmid, PEI (Supplier: Yeasen Biotechnology, Lot No.: WP5430010), and Opti-MEM (Supplier: Gibco, Lot No.: 2883564) was 1:4:14 (W: W: V). The encapsulated plasmid was added to an appropriate amount of complete culture medium, amd gently mixed, which was then used to replace the existing culture medium of the previously plated cells. Cells were harvested 24 h after transfection. Subsequently, cells were resuspended using HBSS (Source: Biosharp, Lot No.: 24179687) and counted with a cell counter. The cells were diluted to a density of (3~5) ×10^5 cells/mL, and then seeded into a flat-bottom white 96-well microplate at 100 µ L/well, resulting in (3~5) ×10^4 cells per well. In each well, 10 µ L of antagonist compounds diluted with HBSS a different concentrations were added firstly, then the agonist compound at a specific concentration (EC80) was added. After reacting for 2 min, the substrate Furimazine (Supplier: TargetMol, Lot No.: 362434) at a final concentration of 10 µM was added. After reacting for another 2 min, the 96-well plate was placed in a PHERAstar FSX microplate reader (Supplier: BMG Labtech) to simultaneously measure the readings at wavelengths of 440 nm and 530 nm. Based on the fluorescence readings at 440 nm and 530 nm, the Ratio and net BRET were calculated. Ratio = Em530 nm / Em440 nm, and net BRET = Ratio co-transfection - Ratio single-transfection. The calculated net BRET values were inputted into GraphPad Prism 9, and curve fitting via nonlinear regression (four-parameter equation) and IC50 calculation were performed.

C57BL/6 mice = test: Inflammatory bowel disease model: 3% DSS drinking water, DAI score; conditions: mean ± SEM
Experimental: Experimental animals: C57BL/6 mice, from Guangdong Vital River Laboratory Animal Technology Co., Ltd.
C57BL/6 mice were used. 3% DSS (Dextran Sulfate Sodium) (Supplier: MPBIO, Lot No.: YD11024) in water was prepared as drinking water for the mice.
During the experiment, the animals were weighed at a fixed time daily, and their status (including feces, mortality) was observed. The efficacy was evaluated by the DAI score. The details of the DAI scoring criteria are as follows: 0 point for normal stool, 1 point for soft but formed stool, 2 points for soft stool, 3 points for soft and wet stool, 4 points for loose stool; 0-1 point for no occult blood, 2 points for occult blood positive, 3 points for visible blood in stool, 4 points for severe fecal blood; 0 point for no weight loss or weight gain, 1 point for weight loss of 1%-5%, 2 points for weight loss of 6%-10%, 3 points for weight loss of 11%-15%, 4 points for weight loss > 15%. The sum of the scores for 3 items is the total DAI score, and the weighing and scoring were carried out every other day. […] The DAI scores are shown in Table 5, and the data are presented as mean + standard error of the mean (SEM): Table 5

BALB/c mice [1] = test: Atopic dermatitis model: MC903 (calcipotriol) on right ear, ear thickness; conditions: 50 mg/kg BID p.o., mean ± SEM
Experimental: (§1) Experimental animals: BALB/c mice, from Guangdong Vital River Laboratory Animal Technology Co., Ltd.
MC903 (calcipotriol) (Supplier: TargetMol, Lot No.: 235760) was applied to the right ear of mice, once a day, for 14 consecutive days.
The animals were randomly divided into 6 groups before induction on D1. The model control group was administered with vehicle alone under the same conditions. Administration was carried out according to the following groups:
During the experiment period, the thickness of the right ear of the mice was measured. […] The data are presented as mean ± standard error of the mean (SEM).

BALB/c mice [2] = test: Rosacea model: intradermal LL-37 in mice, erythema score; conditions: once daily, score 0-4, mean ± SEM
From the text: as §1
The hair on the back of the mice was shaved, and the modeling area was marked on the back skin, avoiding positions with abundant subcutaneous blood vessels. LL-37 (an antimicrobial peptide used for rosacea modeling) (Supplier: QYAOBlO (ChinaPeptides), Lot No.: 20240319) solution was drawn with a microsyringe and injected intradermally along the intradermal path. The needle was withdrawn slowly after injection. The modeling continued for 5 to 7 days, with injections administered twice a day.
Administration was initiated on the day of grouping, which was designated as D1, and was performed once daily for 7 consecutive days. The normal control group and the model control group were administered with vehicle alone under the same conditions. The changes in skin lesions at the injection site on the back of mice in each group were observed, and scores ranging from 0 to 4 were assigned based on the degree of erythema, wherein, a score of 0 indicates no erythema, a score of 1 indicates barely visible erythema, a score of 2 indicates pale erythema with blurred boundaries, a score of 3 indicates erythema with clear boundaries, and a score of 4 indicates dark erythema with clear boundaries. The administration regimen for the mouse rosacea model was as follows: […]

| Structure (SMILES) | pIC50 (human MRGPRX2) | DAI score (C57BL/6 mice; D1, 20mg/kg QD p.o.) | DAI score (C57BL/6 mice; D2, 20mg/kg QD p.o.) | DAI score (C57BL/6 mice; D3, 20mg/kg QD p.o.) | DAI score (C57BL/6 mice; D4, 20mg/kg QD p.o.) | DAI score (C57BL/6 mice; D5, 20mg/kg QD p.o.) | DAI score (C57BL/6 mice; D6, 20mg/kg QD p.o.) | Right Ear Thickness of Mice (BALB/c mice [1]; D2) | Right Ear Thickness of Mice (BALB/c mice [1]; D4) | Right Ear Thickness of Mice (BALB/c mice [1]; D6) | Right Ear Thickness of Mice (BALB/c mice [1]; D8) | Right Ear Thickness of Mice (BALB/c mice [1]; D10) | Right Ear Thickness of Mice (BALB/c mice [1]; D12) | Right Ear Thickness of Mice (BALB/c mice [1]; D14) | also measured |
| --- | --- | --- | --- | --- | --- | --- | --- | --- | --- | --- | --- | --- | --- | --- | --- |
| O=C(O)c1cn(C2CC2)c2cc(-c3ccc(S(=O)(=O)N4CCC4)nc3)c(F)cc2c1=O | 5.00 to 6.00 | 0.00±0.00 | 1.0±1.0 | 1.9±1.2 | 2.8±1.6 | 3.3±1.1 | 4.8±1.6 |  |  |  |  |  |  |  |  |
| CCCNS(=O)(=O)c1ccc(-c2cc3c(cc2F)c(=O)c(C(=O)O)cn3C2CC2)cc1F | 4.10 to 5.00 |  |  |  |  |  |  | 0.19±0.05 mm | 0.27 ± 0.04 mm | 0.34 ± 0.02 mm | 0.44 ± 0.04 mm | 0.50 ± 0.04 mm | 0.52 ± 0.04 mm | 0.54 ± 0.04 mm |  |
| CCCNC(=O)c1ccc(-c2c(F)cc3c(=O)c(C(=O)O)cn(C4CC4)c3c2OC)cc1 | 5.00 to 6.00 |  |  |  |  |  |  | 0.19±0.04 mm | 0.28 ± 0.02 mm | 0.36 ± 0.04 mm | 0.48 ± 0.04 mm | 0.56 ± 0.04 mm | 0.52 ± 0.04 mm | 0.58 ± 0.04 mm | erythema score (BALB/c mice [2]; D1, 4mg/g Topical application): 1.6±0.3; erythema score (BALB/c mice [2]; D1, 40mg/kg Oral): 1.6±0.2; erythema score (BALB/c mice [2]; D2, 4mg/g Topical application): 2.6±0.2; erythema score (BALB/c mice [2]; D2, 40mg/kg Oral): 2.2 ·; erythema score (BALB/c mice [2]; D3, 4mg/g Topical application): 2.6 ·; erythema score (BALB/c mice [2]; D3, 40mg/kg Oral): 2.2 ·; erythema score (BALB/c mice [2]; D4, 4mg/g Topical application): 2.3 ·; erythema score (BALB/c mice [2]; D5, 4mg/g Topical application): 1.8 ·; erythema score (BALB/c mice [2]; D5, 40mg/kg Oral): 1.7 ·; erythema score (BALB/c mice [2]; D6, 4mg/g Topical application): 1.5±0.3; erythema score (BALB/c mice [2]; D6, 40mg/kg Oral): 1.3 ·; erythema score (BALB/c mice [2]; D7, 4mg/g Topical application): 1.2±0.3; erythema score (BALB/c mice [2]; D7, 40mg/kg Oral): 1.2±0.2 |
| CCCNS(=O)(=O)c1ccc(-c2c(F)cc3c(=O)c(C(=O)OC)cn(C4CC4)c3c2OC)cc1 | 5.00 to 6.00 | 0.00±0.00 | 1.0±1.0 | 1.6±1.2 | 2.8±1.4 | 3.3±1.2 | 5.0±1.6 |  |  |  |  |  |  |  |  |
| CCCCCCCCCNS(=O)(=O)c1ccc(-c2c(F)cc3c(=O)c(C(=O)OC)cn(C4CC4)c3c2OC)cc1 | 6.00 to 7.00 | 0.00±0.00 | 1.1±1.0 | 1.9±1.3 | 2.9±1.1 | 3.5±1.3 |  |  |  |  |  |  |  |  |  |
